Literature values in EP1144423B1, “BIS-TERPYRIDINE-PLATINUM(II) COMPLEXES” (ISIS INNOVATION LIMITED, priority 1999, dated 2000).
At least one compound was matched to its structure with a doubt left.

Tested on: poly[d(A-T)2]
Settings: most stable binding mode, circular dichroism; cited from earlier work

For `Cc1cc[n+]([Pt-2]23[n+]4ccccc4-c4cccc([n+]42)-c2cccc[n+]23)cc1.F[B-](F)(F)F.F[B-](F)(F)F` [4-Picoline-2,2':6',2"-terpyridine-platinum(II) bis-tetrafluoroborate], the equilibrium binding constant is listed as “approximately 2x10 M^-1”.
